Data as given in PubChem BioAssay AID504804 (Drosophila RNAi Screening Center, 2011).
Assay: 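dsRNAs that improve Kc cell survival under doxorubicin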 (primary screen). System: Drosophila Kc cells. Reagent: long dsRNA against Drosophila genes, 0.5 µg dsRNA per well. Timing: 96 h (48 h knock-down, then 48 h drug). Challenge: doxorubicin 5 µg/ml for 48 h, added 48 h after dsRNA. Read-out: 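Viability measured as cellular ATP by luminescence after 48 h knock-down then 48 h doxorubicin at 5 µg/ml; unnormalised plate counts for each replicate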. Reading the numbers: raw ATP luminescence: higher = more viable cells, protection from doxorubicin. Hit rule: 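Active when both duplicate wells lie at least 2 SD above the plate mean and protection is confirmed by rescreening and independent dsRNAs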.
The screen tested about 19,000 reagents; below is a random part of those with a known target gene and a result. Of all reagents, 47 (0.25%) were called active. 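Signals are raw, not normalised; exact z-scores behind calls not deposited; actives needed confirmation, so some wells reaching 2 SD are inactive.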 Reagents against one gene are numbered here. A plus sign joins genes that one reagent is predicted to hit.

no.	gene	dsRNA no.	raw ATP luminescence, replicate 1	raw ATP luminescence, replicate 2	outcome
1	Tom70 (GeneID 34618)	1	56720	66667	inactive
2	CG11368 (GeneID 50397)	1	44880	45620	inactive
3	WRNexo (GeneID 42208)	1	39697	46717	inactive
4	ATP6 (retired record) (GeneID 192467)	1	2.62e5	2.79e5	inactive
5	udd (GeneID 35781)	1	43350	87477	inactive
6	Hydr1 (GeneID 35930)	1	2.04e5	2.23e5	inactive
7	CG32762 (GeneID 318198)	1	35060	36200	inactive
8	mRpL36 (GeneID 59151)	1	50803	52493	inactive
9	CG11635 + spaw	1	47737	69443	inactive
10	CG13575 (GeneID 37883)	1	55947	54157	inactive
11	CG11076 (GeneID 43830)	1	45680	68140	inactive
12	CG42502 + CG10570	1	84830	48690	inactive
13	Vha100-5 (GeneID 34587)	1	38270	69417	inactive
14	CG14654 (retired record) (GeneID 40592)	1	72830	61590	inactive
15	CG4593 (GeneID 31649)	1	28470	43040	inactive
16	CG14877 (GeneID 41929)	1	73860	1.07e5	inactive
17	RpL36 (GeneID 31009)	1	28380	27350	inactive
18	slif (GeneID 40510)	1	21793	19703	inactive
19	Dif (GeneID 35045)	1	81717	81150	inactive
20	CG14855 (GeneID 41789)	1	77780	90180	inactive
21	Acph-1 (GeneID 48445)	1	42870	42930	inactive
22	SecCl (GeneID 39949)	1	62357	60240	inactive
23	CG1902 (GeneID 35993)	1	63310	47267	inactive
24	CG3565 (GeneID 37933)	1	65580	50933	inactive
25	CG14402 (GeneID 35352)	1	69780	66310	inactive
26	jigr1 (GeneID 43093)	1	2.39e5	2.15e5	inactive
27	jigr1 (GeneID 43093)	2	67130	53810	inactive
28	EMC4 (GeneID 40505)	1	50563	54770	inactive
29	Nadk1a (GeneID 36506)	1	85570	1.04e5	inactive
30	Nadk1a (GeneID 36506)	2	69720	58823	inactive
31	CG4619 (GeneID 34321)	1	88783	59600	inactive
32	Sema2a (GeneID 36846)	1	50133	62170	inactive
33	CG11018 (GeneID 37259)	1	45417	59923	inactive
34	CG4404 (GeneID 32241)	1	3.35e5	3.45e5	inactive
35	Mob4 (GeneID 35576)	1	68497	57763	inactive
36	PPYR1 (GeneID 32453)	1	2.05e5	2.73e5	inactive
37	CG1632 (GeneID 31763)	1	1.71e5	1.89e5	inactive
38	CG1632 (GeneID 31763)	2	38850	38470	inactive
39	CG31007 (GeneID 318553)	1	1.39e5	1.47e5	inactive
40	Ptpa (GeneID 33555)	1	1.19e5	58300	inactive
41	CG31344 (GeneID 41835)	1	98690	78030	inactive
42	hoe2 (GeneID 33700)	1	23847	29617	inactive
43	CG4972 (GeneID 34388)	1	44130	63553	inactive
44	CG31097 (GeneID 43058)	1	55220	49770	inactive
45	CG12576 (GeneID 33135)	1	2.53e5	2.72e5	inactive
46	CG12935 (GeneID 36134)	1	60503	57450	inactive
47	CG44001 + CG33995	1	2.81e5	3.05e5	inactive
48	CG44001 + CG33995	2	1.02e5	81670	inactive
49	CG14109 (GeneID 39512)	1	73510	68633	inactive
50	CG11626 (GeneID 42323)	1	68180	76060	inactive
51	CG13305 (GeneID 38992)	1	60293	69803	inactive
52	CheA87a (GeneID 41642)	1	80070	75120	inactive
53	CG8814 (GeneID 33492)	1	1.24e5	85453	inactive
54	Wdr81 (GeneID 34616)	1	74167	58393	inactive
55	CG15914 (GeneID 32542)	1	3.43e5	3.22e5	inactive
56	CG31195 (GeneID 46155)	1	1.28e5	1.69e5	inactive
57	lili (GeneID 42956)	1	39523	38500	inactive
58	Acp1 (GeneID 34052)	1	32547	60820	inactive
59	hkb (GeneID 40549)	1	59490	67737	inactive
60	Mal-A8 (GeneID 35830)	1	36633	93157	inactive
61	CG9632 (GeneID 41926)	1	84540	86700	inactive
62	PVRAP (GeneID 38677)	1	57490	66663	inactive
63	PVRAP (GeneID 38677)	2	60703	66030	inactive
64	Hipk (GeneID 38070)	1	77860	1.27e5	inactive
65	Hipk (GeneID 38070)	2	56333	72043	inactive
66	Dsk (GeneID 45845)	1	73070	70507	inactive
67	BobA (GeneID 50281)	1	79127	81837	inactive
68	Stacl + CG8179 (retired record)	1	75173	86593	inactive
69	Pka-C2 (GeneID 43644)	1	49850	39420	inactive
70	Reepl1 (GeneID 32103)	1	3.23e5	3.37e5	inactive
71	Atg6 (GeneID 42850)	1	33227	50823	inactive
72	hwt (GeneID 32202)	1	1.23e5	1.67e5	inactive
73	CG34331 (GeneID 33011)	1	3.46e5	3.29e5	inactive
74	CG5510 (GeneID 42872)	1	63120	77450	inactive
75	CG13326 (GeneID 36439)	1	63417	53347	inactive
76	spag (GeneID 43958)	1	40887	55310	inactive
77	kl-3 (retired record) (GeneID 5740653)	1	2.13e5	2.01e5	inactive
78	kl-3 (retired record) (GeneID 5740653)	2	3.76e5	2.68e5	inactive
79	kl-3 (retired record) (GeneID 5740653)	3	2.30e5	2.37e5	inactive
80	CG44085 (GeneID 34732)	1	11390	23133	inactive
81	CG3483 (GeneID 37900)	1	75353	48510	inactive
82	orb (GeneID 42752)	1	13107	15010	inactive
83	Liprin-beta (GeneID 39524)	1	59043	54080	inactive
84	CG10680 (GeneID 35282)	1	53257	56250	inactive
85	CG32236 (GeneID 249170)	1	97333	1.39e5	inactive
86	Rm62 (GeneID 40739)	1	45513	17570	inactive
87	CG34015 (GeneID 3885570)	1	1.74e5	2.04e5	inactive
88	CG31823 (GeneID 326163)	1	63650	63497	inactive
89	CG34283 (GeneID 5740817)	1	1.95e5	1.95e5	inactive
90	feo (GeneID 32015)	1	1.61e5	2.24e5	inactive
91	CG14743 (GeneID 35860)	1	39207	74347	inactive
92	CG17625 (GeneID 42678)	1	50330	64150	inactive
93	CG18808 (GeneID 59169)	1	93290	81800	inactive
94	CG17672 (GeneID 4379911)	1	25953	23343	inactive
95	CG17672 (GeneID 4379911)	2	41833	35633	inactive
96	CG34198 (GeneID 5740481)	1	1.26e5	68800	inactive
97	Tsp86D (GeneID 41310)	1	48483	52497	inactive
98	Hmu (GeneID 43294)	1	52510	38740	inactive
99	hrm (GeneID 35499)	1	58400	56917	inactive
100	dpr9 (GeneID 2768670)	1	63613	28653	inactive
101	dpr9 (GeneID 2768670)	2	53570	82980	inactive
102	dpr9 (GeneID 2768670)	3	73490	95100	inactive
103	CG14563 (GeneID 40435)	1	23943	63233	inactive
104	CG5687 (GeneID 38255)	1	52353	55590	inactive
105	Obp99a (GeneID 43488)	1	40940	37780	inactive
106	CG34174 (GeneID 5740699)	1	2.32e5	2.64e5	inactive
107	Ccdc85 (GeneID 33509)	1	17833	12723	inactive

8 entries from above, reduced to “raw ATP luminescence, replicate 1”.
hrm (GeneID 35499)	58400
dpr9 (GeneID 2768670) #1	63613
dpr9 (GeneID 2768670) #2	53570
dpr9 (GeneID 2768670) #3	73490
CG14563 (GeneID 40435)	23943
CG5687 (GeneID 38255)	52353
Obp99a (GeneID 43488)	40940
CG34174 (GeneID 5740699)	2.32e5
